# In the supplement of paper PMC5949888:
# ± gives the standard deviation of the averaged measurements. Most values lie at the floor of the assay. Slopes are relative: functional sequences can read slightly below zero.
# Tested on: Saccharomyces cerevisiae PS128 hsf1 delta, HSF1(1-493) fusion
# Experiment: growth estimate (transactivation domain function in HSF1 fusion, heat-shock survival) (a.u. (slope of normalised read count over time)); higher = stronger growth at 37°C, i.e. more transactivation activity
# Settings: library: random library
# Method: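 Random 60-nt DNA library encoding peptides of up to 20 aa, fused to the C-terminus of yeast HSF1 residues 1-493 (C-terminal TAD deleted) and expressed from the native HSF1 promoter on a CEN plasmid in hsf1-deleted S. cerevisiae PS128. Cells were selected at 37°C on -trp 5-FOA plates for 0, 2, 4, 6 and 8 days and amplicons were sequenced. Growth estimate is the slope of a robust linear fit of total-sum-normalised read counts (normalised to the first time point) over time, using at least 2 replicates. Sequences are classed functional (TAD activity) above a threshold of -0.13, set from stop-codon control sequences.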
row,Substance,growth estimate
1,IADGRYNCNSTHITKAPE,< -0.25
2,IAFKVAYLGVNLTRRWYFGA,< -0.25
3,IAGENKGGKTRTGFQAEQPS,< -0.25
4,IAGGISSGVRRALSCRFFGY,< -0.25
5,IAGHSRRIDYSHIRIRWTVP,< -0.25
6,IAGIAWRAWHFVLIERFLLQ,< -0.25
7,IAICFICLGCG,-0.246
8,IALIIRSKWPTNLRPDVSGR,< -0.25
9,IALLCSL,< -0.25
10,IALVPGFIYRSFVNLRPDVT,< -0.25
11,IAMSLASP,< -0.25
12,IANGAVSTN,< -0.25
13,IAPR,< -0.25
14,IAPSSGDRAFFVIRG,-0.25
15,IARGAIFN,< -0.25
16,IARRKTREIFPQSS,< -0.25
17,IASPSGSKGRS,< -0.25
18,IATHSASNHV,< -0.25
19,IATLDPGEHFYPRTNKHEGL,< -0.25
20,IAVGRVKGNPSPNAMV,< -0.25
21,IAVR,< -0.25
22,IAWSLS,< -0.25
23,ICDSPTICPTVVVFCAASSR,< -0.25
24,ICFQWSQQDAGC,< -0.25

row,Substance,growth estimate
1,ICGGSFNFEIGLSRMVYWGQ,< -0.25
2,ICIICPSPGPDCHVSRRHLG,< -0.25
3,ICKATHMGAEANGTNGNTFP,< -0.25
4,ICLESPVSSSPGFLKRALVR,< -0.25
5,ICLGLPLVKNNNHKRRL,< -0.25
6,ICLNLEFRET,< -0.25
7,ICLSFLRRSGAASRNVAR,-0.243
8,ICMNVAATAIGKGNTR,< -0.25
9,ICRA,< -0.25
10,ICRCPGRDSVIKSRLSYSPT,< -0.25
11,ICRFHKVGTVNSHRALHKEG,< -0.25
12,ICSQRVTRHACKRHLRQGWL,< -0.25
13,ICTR,< -0.25
14,ICVKP,< -0.25
15,ICYSHVVGLCQSGEYNGPPL,< -0.25
16,IDASSKMQSLPHQLRYMA,< -0.25
17,IDELGTATVVWE,< -0.25
18,IDFVVLFV,< -0.25
19,IDGRATVQVRSVALETTTRS,< -0.25
20,IDGS,< -0.25
21,IDIRD,-0.0635
22,IDKDKGHYMGVSHAFSRDKS,< -0.25
23,IDKTRAGVDRC,< -0.25
24,IDLHPSTVVVRCIAARERID,< -0.25

row,Substance,growth estimate
1,IDMCGLSA,-0.246
2,IDNFMGWRLINLAIRSVEEV,< -0.25
3,IDNGLWAMRVPDTNPSTWPT,< -0.25
4,IDRGFGSALCGGAYLGINYS,< -0.25
5,IDS,< -0.25
6,IDSMGCERLPVPLACITILT,< -0.25
7,IDT,-0.2484 ± 0.0023
8,IDVGLFIRRACAKLIATTVA,< -0.25
9,IDWRASRLALYFKETLHRHN,< -0.25
10,IDYFLTLGSSSLTSW,< -0.25
11,IEAPRWSIIGYEFRPLLRLD,< -0.25
12,IECQWYFKLHSGVGRETLYW,< -0.25
13,IEELLIPAGRITLERSSDKR,< -0.25
14,IEHFLSLLVKPF,< -0.25
15,IERSSHGVMLLRDYGLDEGG,< -0.25
16,IESHIKGVRV,< -0.25
17,IESLRCSSKPLSISYGFPSW,< -0.25
18,IEVNGLGRTSRGRTITVDWP,< -0.25
19,IEVQTIVRTRHSFTTPVPT,< -0.25
20,IEVTE,< -0.25
21,IEYILARAWFQMDRLMALVE,< -0.25
22,IFA,< -0.25
23,IFAVSSGQTLLMLIYVC,< -0.25
24,IFCMIRVGAEGSTWGARLRT,< -0.25

# Reformatted with bars between the fields: entries from further up.
row | Substance | growth estimate
4 | IAGGISSGVRRALSCRFFGY | < -0.25
5 | IAGHSRRIDYSHIRIRWTVP | < -0.25
6 | IAGIAWRAWHFVLIERFLLQ | < -0.25
7 | IAICFICLGCG | -0.246
8 | IALIIRSKWPTNLRPDVSGR | < -0.25
9 | IALLCSL | < -0.25
10 | IALVPGFIYRSFVNLRPDVT | < -0.25
11 | IAMSLASP | < -0.25
12 | IANGAVSTN | < -0.25
13 | IAPR | < -0.25
14 | IAPSSGDRAFFVIRG | -0.25
15 | IARGAIFN | < -0.25
16 | IARRKTREIFPQSS | < -0.25
17 | IASPSGSKGRS | < -0.25
18 | IATHSASNHV | < -0.25
19 | IATLDPGEHFYPRTNKHEGL | < -0.25
20 | IAVGRVKGNPSPNAMV | < -0.25
21 | IAVR | < -0.25
22 | IAWSLS | < -0.25
23 | ICDSPTICPTVVVFCAASSR | < -0.25
24 | ICFQWSQQDAGC | < -0.25
1 | ICGGSFNFEIGLSRMVYWGQ | < -0.25
2 | ICIICPSPGPDCHVSRRHLG | < -0.25
3 | ICKATHMGAEANGTNGNTFP | < -0.25
4 | ICLESPVSSSPGFLKRALVR | < -0.25
5 | ICLGLPLVKNNNHKRRL | < -0.25
6 | ICLNLEFRET | < -0.25
7 | ICLSFLRRSGAASRNVAR | -0.243
8 | ICMNVAATAIGKGNTR | < -0.25
9 | ICRA | < -0.25
10 | ICRCPGRDSVIKSRLSYSPT | < -0.25
11 | ICRFHKVGTVNSHRALHKEG | < -0.25
12 | ICSQRVTRHACKRHLRQGWL | < -0.25
13 | ICTR | < -0.25
14 | ICVKP | < -0.25
15 | ICYSHVVGLCQSGEYNGPPL | < -0.25
16 | IDASSKMQSLPHQLRYMA | < -0.25
17 | IDELGTATVVWE | < -0.25
18 | IDFVVLFV | < -0.25
19 | IDGRATVQVRSVALETTTRS | < -0.25
20 | IDGS | < -0.25
21 | IDIRD | -0.0635
22 | IDKDKGHYMGVSHAFSRDKS | < -0.25
23 | IDKTRAGVDRC | < -0.25
24 | IDLHPSTVVVRCIAARERID | < -0.25
1 | IDMCGLSA | -0.246
2 | IDNFMGWRLINLAIRSVEEV | < -0.25
3 | IDNGLWAMRVPDTNPSTWPT | < -0.25
4 | IDRGFGSALCGGAYLGINYS | < -0.25
5 | IDS | < -0.25
6 | IDSMGCERLPVPLACITILT | < -0.25
7 | IDT | -0.2484 ± 0.0023

# Next part:

row,Substance,growth estimate
1,IFCVRHPNFIFCGLECRSAC,< -0.25
2,IFP,< -0.25
3,IFQHRRQP,< -0.25
4,IFRMRRYISNLLASVRVSQF,< -0.25
5,IFRYGQCGQFPLNKVAPLSS,< -0.25
6,IFSLVPRLIFRVVARSVRLV,< -0.25
7,IFTGFGWVCGP,< -0.25
8,IFVLPTDVCRICEFAHYDCL,< -0.25
9,IFVQAGVWMTLRTRWDKC,< -0.25
10,IGAGACEDCGTGSRFT,< -0.25
11,IGDSIVHGG,< -0.25
12,IGDVLQG,< -0.25
13,IGDYESIVSCTRFKGCNKGI,< -0.25
14,IGECTKWRSYDDIHYIPTAF,< -0.25
15,IGEGLISTGSID,< -0.25
16,IGETDPKPRVRRETRHLKDM,< -0.25
17,IGFTWIRPVDMCFV,< -0.25
18,IGGGQASPYSVCKSHVLMVT,< -0.25
19,IGGRIHRVVVSLVTLHLAYH,< -0.25
20,IGGTRLTIVGLSFV,< -0.25
21,IGGVGP,< -0.25
22,IGHLQPISARARSGLPAVRR,< -0.25
23,IGIASNGGKNSSPEACRWGG,< -0.25
24,IGKTRVKHGDPSTAKSLYLL,< -0.25

row,Substance,growth estimate
1,IGKTVRVPIIRESRGLKVGP,< -0.25
2,IGLMTLRGVS,< -0.25
3,IGLSVLAE,< -0.25
4,IGMRFRPGRMGSERCRPAAT,< -0.25
5,IGPCEPAIQAISRS,< -0.25
6,IGPTERTDSSQRKARSP,< -0.25
7,IGPVGCGSSRIDA,< -0.25
8,IGRANLVVTLFFRMRYGCSF,< -0.25
9,IGRKSGPRRLKGTPRYKGTD,< -0.25
10,IGRSSES,< -0.25
11,IGSGRGPHPSMGVGVKDQA,< -0.25
12,IGSGSRDRKLCLCG,< -0.25
13,IGSPGAEDDRPEV,< -0.25
14,IGTAYGGPRLFDRLGQKRCL,< -0.25
15,IGTMLSSSLQNTS,< -0.25
16,IGTPPLRGPEVTR,-0.208
17,IGTRWIYSNLCQGLTSLVTG,< -0.25
18,IGVGWEGRVFF,< -0.25
19,IGVYLPRMYTYGTVIRAILA,< -0.25
20,IGWTFTGTVRRLAQTPIHSD,< -0.25
21,IGYAPSCRPDYRGGETSGGT,< -0.25
22,IGYW,< -0.25
23,IHAGCVS,< -0.25
24,IHGEAKIGLGSTPRFPLKVF,-0.248

row,Substance,growth estimate
1,IHLLVESAAERIRERAVF,< -0.25
2,IHLRGTTRIPNGGRSVPLLR,< -0.25
3,IHLVGTYACLLNSRWVSSAK,< -0.25
4,IHRRGM,< -0.25
5,IHT,-0.246
6,IHWCPTCCARWDTLHFLTLC,< -0.25
7,IHWIPKSSNVSHSRNSV,-0.245
8,IIATSGTSGYDRRVIGGRSG,< -0.25
9,IIEGPYYFQPGEVSSQRGAV,< -0.25
10,IIGGLAARDTCPRV,< -0.25
11,IIH,< -0.25
12,IIITPKKCGRGKVLWFKDRR,< -0.25
13,IIPCSQRRGGSHGGRAPG,< -0.25
14,IIPKLNNVEVREYRRFLGSL,-0.241
15,IIQIEKSARLCGAIGRPVRR,< -0.25
16,IIQWLCVPTVGMYVAITDNR,-0.246
17,IIRSLCEESSGSVERG,< -0.25
18,IIYPSTPRTAALFVVPQRRD,< -0.25
19,IKA,-0.228
20,IKDCSYSLAPILIRVFGIRG,< -0.25
21,IKDGCHKL,< -0.25
22,IKDSQSSIKAGFA,< -0.25
23,IKFRFPHLHKRLVRSLGTIV,< -0.25
24,IKGFSGGHYALL,< -0.25

row,Substance,growth estimate
1,IKGILALHGRLIDETENKWT,< -0.25
2,IKHFALGEQPPHVAYFTRRP,< -0.25
3,IKK,< -0.25
4,IKLRLGSKLGEQYVGVCWTL,< -0.25
5,IKNFSVKSCFL,< -0.25
6,IKPKVVIL,< -0.25
7,IKQSLI,< -0.25
8,IKREGCVQSGPG,< -0.25
9,IKRGHTVIITSLLSAKEICS,< -0.25
10,IKSANGSVVVLGIARGITQC,< -0.25
11,IKSRIRTFC,< -0.25
12,IKTT,< -0.25
13,IKWGNFEASEASGGLQAVSA,< -0.25
14,ILAVDDC,< -0.25
15,ILDRSVVINSSDSPAVVR,< -0.25
16,ILFCWALQVYQAWQHILITT,< -0.25
17,ILFGYGSRAT,< -0.25
18,ILFTRADCHTDIALMDS,< -0.25
19,ILGFRDAALR,< -0.25
20,ILGHESVPYVFILARHANLA,< -0.25
21,ILGLSQLL,< -0.25
22,ILGQAFAHPSVRLNSVFPAG,< -0.25
23,ILICRRVNRRSRYLVAQ,< -0.25
24,ILINVSGLSHTANSLLP,-0.25

row,Substance,growth estimate
1,ILIRRGSVTIYAFDGCTTPD,< -0.25
2,ILKCQQ,< -0.25
3,ILKKGYPSCTYARLAM,< -0.25
4,ILKLTITMERAVTWVSVARR,< -0.25
5,ILMELFDLHLTFHTLPDLNK,< -0.25
6,ILMHWAAGS,< -0.25
7,ILNRSRYW,< -0.25
8,ILNSDTLTRWTPLSPRPGP,< -0.25
9,ILNTEDY,< -0.25
10,ILPCYRRRKMSWSHSLIRHR,< -0.25
11,ILPKSLGSLTNFPDMARRSC,< -0.25
12,ILPSGMLEFEQPLTSITDSC,< -0.25
13,ILQDSQL,< -0.25
14,ILRCMQPNKTNWVFLTPQSR,< -0.25
15,ILRLRMTKFE,< -0.25
16,ILRPSPSRVTQLGSLAGSAA,< -0.25
17,ILTSFDDIIECSRQFLPQGA,-0.231
18,ILTVEFHHVPRQASVGFRGQ,< -0.25
19,ILVRASSVRLVSKVQVGRNM,< -0.25
20,ILVRGCARIWLSSHRIP,< -0.25
